PubChem BioAssay AID1053208 – Peter MacCallum Cancer Centre | 2014

- Aim: 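Synthetic lethal interactions between gene loss and doxorubicin in osteosarcoma cells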 (primary screen)
- Cell system: mouse osteosarcoma cells, early-passage culture from an engineered mouse model of fibroblastic bone tumour
- Knock-down reagent: siRNA pool against mouse genes, 40 nM
- Duration: about 120 h (48 h before drug, then 72 h with drug)
- Challenge: doxorubicin 100 nM for 72 h, roughly 30-40% inhibitory dose
- Measurement: 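Luminescent ATP signal taken as viability with or without 100 nM doxorubicin for 72 h; mean of two wells set against non-targeting siRNA and turned into robust z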
- Reading the numbers: viability z-score with doxorubicin: higher = more viable cells under doxorubicin; viability z-score without drug: higher = more viable cells with knock-down alone
- Rule for the call: 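Called active if knock-down leaves viability unchanged without drug (z within -2 to 2) but lowers it with doxorubicin (z at or under -2)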
In all, the deposit lists about 17,000 reagents; below is a part drawn at random. Over the whole deposit, 788 (4.7%) are marked active. 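Calls rest on z-score classes alone; an extra cut-off of viability at most 70% of control was not applied to them.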 Entries without a mark were called inactive. Reagents against one gene are numbered here. Further read-outs or replicates are left out here.

H2-Q10 (histocompatibility 2, Q region locus 10) showed combined z-score class no change with or without drug; viability z-score with doxorubicin 0.45; viability z-score without drug -0.84.
For Nab1 (Ngfi-A binding protein 1) the deposit lists combined z-score class no change with or without drug; viability z-score with doxorubicin 1.46; viability z-score without drug 0.34.
Knock-down of Bnip3 (BCL2/adenovirus E1B interacting protein 3) gave: combined z-score class high cell count with and without drug; viability z-score with doxorubicin 2.47; viability z-score without drug 2.02.
Depletion of Snrpa1 (small nuclear ribonucleoprotein polypeptide A') gave: combined z-score class low cell count with and without drug; viability z-score with doxorubicin -5.73; viability z-score without drug -3.2.
With knock-down of Plekha5 (pleckstrin homology domain containing A5) the results were combined z-score class no change with or without drug; viability z-score with doxorubicin -0.9; viability z-score without drug 0.84.
With knock-down of Pcdhb20 (protocadherin beta 20) the results were combined z-score class no change with or without drug; viability z-score with doxorubicin 1.57; viability z-score without drug 0.84.
For Sgcd (sarcoglycan, delta (dystrophin-associated glycoprotein)) the deposit lists combined z-score class no change with or without drug; viability z-score with doxorubicin -0.67; viability z-score without drug -0.84.
Antxr1 (anthrax toxin receptor 1) showed combined z-score class no change with or without drug; viability z-score with doxorubicin -0.11; viability z-score without drug 0.51.
Depletion of Nfic (nuclear factor I/C) #1 gave: combined z-score class no change with or without drug; viability z-score with doxorubicin 0.11; viability z-score without drug -0.51.
Nfic (nuclear factor I/C) #2 gave combined z-score class no change with or without drug; viability z-score with doxorubicin 1.01; viability z-score without drug 0.34.
With knock-down of Gskip (GSK3B interacting protein), the screen gave combined z-score class no change with or without drug; viability z-score with doxorubicin -1.8; viability z-score without drug -0.17.
With knock-down of Or6c66 (olfactory receptor family 6 subfamily C member 66), the screen gave combined z-score class no change with or without drug; viability z-score with doxorubicin -0.67; viability z-score without drug 0.84.
Arhgef37 (Rho guanine nucleotide exchange factor 37) showed combined z-score class low cell count without drug only; viability z-score with doxorubicin -0.67; viability z-score without drug -2.19.
For Metap1d (methionyl aminopeptidase type 1D (mitochondrial)), the entry reads combined z-score class low cell count with doxorubicin only (active); viability z-score with doxorubicin -2.25; viability z-score without drug -0.51.
Yme1l1 (YME1-like 1 (S. cerevisiae)) scored combined z-score class no change with or without drug; viability z-score with doxorubicin -0.79; viability z-score without drug -0.51.
With knock-down of Lrrd1 (leucine rich repeats and death domain containing 1) the results were combined z-score class no change with or without drug; viability z-score with doxorubicin -0.22; viability z-score without drug -0.17.
For Dpagt1 (dolichyl-phosphate N-acetylglucosaminephosphotransferase 1), the entry reads combined z-score class no change with or without drug; viability z-score with doxorubicin 0; viability z-score without drug 0.
After knock-down of Denr (density-regulated protein), the record shows combined z-score class no change with or without drug; viability z-score with doxorubicin 0.22; viability z-score without drug 0.
Unc119b (unc-119 lipid binding chaperone B) showed combined z-score class no change with or without drug; viability z-score with doxorubicin -0.22; viability z-score without drug 0.34.
For DSG1A the deposit lists combined z-score class no change with or without drug; viability z-score with doxorubicin 0.67; viability z-score without drug 1.85.
Klrd1 (killer cell lectin-like receptor, subfamily D, member 1) showed combined z-score class high cell count without drug only; viability z-score with doxorubicin 0.67; viability z-score without drug 2.87.
After knock-down of Rabl3 (RAB, member RAS oncogene family-like 3) the results were combined z-score class no change with or without drug; viability z-score with doxorubicin 0.67; viability z-score without drug -1.35.
Cyb5b (cytochrome b5 type B) gave combined z-score class no change with or without drug; viability z-score with doxorubicin -1.57; viability z-score without drug 0.17.
Odc1 (ornithine decarboxylase, structural 1) scored combined z-score class no change with or without drug; viability z-score with doxorubicin 0.9; viability z-score without drug 0.17.
Depletion of Pnpt1 (polyribonucleotide nucleotidyltransferase 1) resulted in: combined z-score class low cell count with and without drug; viability z-score with doxorubicin -2.36; viability z-score without drug -2.19.
Against Fbxo6 (F-box protein 6), the values are combined z-score class no change with or without drug; viability z-score with doxorubicin -0.22; viability z-score without drug -0.17.
Ttll3 (tubulin tyrosine ligase-like family, member 3) gave combined z-score class no change with or without drug; viability z-score with doxorubicin -0.45; viability z-score without drug 0.
Knock-down of Acsl3 (acyl-CoA synthetase long-chain family member 3) came out at: combined z-score class no change with or without drug; viability z-score with doxorubicin 0.22; viability z-score without drug -0.51.

Copied from the list.
Under “combined z-score class”, Cyb5b (cytochrome b5 type B) reads no change with or without drug
Yme1l1 (YME1-like 1 (S. cerevisiae)), viability z-score with doxorubicin = -0.79
Unc119b (unc-119 lipid binding chaperone B), viability z-score without drug → 0.34
For “viability z-score with doxorubicin”, Pnpt1 (polyribonucleotide nucleotidyltransferase 1) has -2.36
